Results published in the supplement of paper PMC10849652.
The other results are listed elsewhere or left out.

Sequences of proteins named here, by UniProt entry; tags and fusion partners are left off. A change or cut given only in a name is not applied to a line headed by its entry.
UniProt Q6UWZ7: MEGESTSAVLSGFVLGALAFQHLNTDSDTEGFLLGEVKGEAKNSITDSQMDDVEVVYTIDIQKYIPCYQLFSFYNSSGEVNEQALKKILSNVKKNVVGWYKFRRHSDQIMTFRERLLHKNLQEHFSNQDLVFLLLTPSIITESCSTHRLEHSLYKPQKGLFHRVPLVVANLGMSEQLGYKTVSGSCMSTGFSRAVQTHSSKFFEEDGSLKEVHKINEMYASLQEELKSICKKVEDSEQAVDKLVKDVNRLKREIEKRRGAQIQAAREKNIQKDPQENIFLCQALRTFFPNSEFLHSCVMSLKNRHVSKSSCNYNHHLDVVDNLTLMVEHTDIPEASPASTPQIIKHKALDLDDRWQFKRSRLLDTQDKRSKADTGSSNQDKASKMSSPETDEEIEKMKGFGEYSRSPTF
UniProt Q4L235: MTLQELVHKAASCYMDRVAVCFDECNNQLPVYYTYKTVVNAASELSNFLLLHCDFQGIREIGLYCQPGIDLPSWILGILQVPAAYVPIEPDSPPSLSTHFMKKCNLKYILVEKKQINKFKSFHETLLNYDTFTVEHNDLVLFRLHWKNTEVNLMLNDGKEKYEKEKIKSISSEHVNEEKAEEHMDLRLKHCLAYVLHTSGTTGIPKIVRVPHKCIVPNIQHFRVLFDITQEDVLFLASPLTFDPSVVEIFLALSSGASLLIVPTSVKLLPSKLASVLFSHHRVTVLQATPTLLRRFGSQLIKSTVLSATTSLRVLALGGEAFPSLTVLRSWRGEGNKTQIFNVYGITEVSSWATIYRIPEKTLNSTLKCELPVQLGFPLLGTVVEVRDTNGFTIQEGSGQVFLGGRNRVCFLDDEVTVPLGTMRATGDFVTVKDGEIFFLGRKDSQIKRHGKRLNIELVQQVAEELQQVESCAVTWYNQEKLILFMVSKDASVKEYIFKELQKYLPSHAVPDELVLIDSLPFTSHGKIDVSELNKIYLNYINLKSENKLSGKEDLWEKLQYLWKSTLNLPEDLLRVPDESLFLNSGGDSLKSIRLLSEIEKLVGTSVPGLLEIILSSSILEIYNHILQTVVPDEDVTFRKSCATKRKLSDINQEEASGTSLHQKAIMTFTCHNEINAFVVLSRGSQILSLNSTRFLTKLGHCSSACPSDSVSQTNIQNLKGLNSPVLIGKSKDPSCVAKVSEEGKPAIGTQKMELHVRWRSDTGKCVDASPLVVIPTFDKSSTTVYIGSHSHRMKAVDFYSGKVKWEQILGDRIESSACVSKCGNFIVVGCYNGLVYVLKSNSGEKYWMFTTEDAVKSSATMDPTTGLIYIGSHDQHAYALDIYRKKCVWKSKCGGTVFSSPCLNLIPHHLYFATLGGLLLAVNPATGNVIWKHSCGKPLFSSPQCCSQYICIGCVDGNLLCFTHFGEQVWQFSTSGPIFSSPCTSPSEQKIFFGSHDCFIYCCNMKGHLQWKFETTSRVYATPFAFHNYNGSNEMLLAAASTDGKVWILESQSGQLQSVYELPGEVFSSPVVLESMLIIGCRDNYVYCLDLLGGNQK
UniProt Q9NYB9: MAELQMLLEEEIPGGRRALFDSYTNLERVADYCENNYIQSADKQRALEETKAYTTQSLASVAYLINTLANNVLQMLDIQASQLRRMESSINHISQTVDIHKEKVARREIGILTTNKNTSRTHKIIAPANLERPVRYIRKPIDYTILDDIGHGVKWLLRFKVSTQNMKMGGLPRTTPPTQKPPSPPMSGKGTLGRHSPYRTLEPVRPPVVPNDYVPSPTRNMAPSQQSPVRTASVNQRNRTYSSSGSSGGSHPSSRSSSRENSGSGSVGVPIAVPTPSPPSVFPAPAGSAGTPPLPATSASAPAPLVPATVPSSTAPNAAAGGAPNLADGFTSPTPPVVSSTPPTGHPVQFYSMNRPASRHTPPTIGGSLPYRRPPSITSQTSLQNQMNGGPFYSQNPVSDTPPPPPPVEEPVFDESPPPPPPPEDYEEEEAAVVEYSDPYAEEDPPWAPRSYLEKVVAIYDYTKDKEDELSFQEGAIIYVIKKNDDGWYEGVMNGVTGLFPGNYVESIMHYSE
UniProt O60488: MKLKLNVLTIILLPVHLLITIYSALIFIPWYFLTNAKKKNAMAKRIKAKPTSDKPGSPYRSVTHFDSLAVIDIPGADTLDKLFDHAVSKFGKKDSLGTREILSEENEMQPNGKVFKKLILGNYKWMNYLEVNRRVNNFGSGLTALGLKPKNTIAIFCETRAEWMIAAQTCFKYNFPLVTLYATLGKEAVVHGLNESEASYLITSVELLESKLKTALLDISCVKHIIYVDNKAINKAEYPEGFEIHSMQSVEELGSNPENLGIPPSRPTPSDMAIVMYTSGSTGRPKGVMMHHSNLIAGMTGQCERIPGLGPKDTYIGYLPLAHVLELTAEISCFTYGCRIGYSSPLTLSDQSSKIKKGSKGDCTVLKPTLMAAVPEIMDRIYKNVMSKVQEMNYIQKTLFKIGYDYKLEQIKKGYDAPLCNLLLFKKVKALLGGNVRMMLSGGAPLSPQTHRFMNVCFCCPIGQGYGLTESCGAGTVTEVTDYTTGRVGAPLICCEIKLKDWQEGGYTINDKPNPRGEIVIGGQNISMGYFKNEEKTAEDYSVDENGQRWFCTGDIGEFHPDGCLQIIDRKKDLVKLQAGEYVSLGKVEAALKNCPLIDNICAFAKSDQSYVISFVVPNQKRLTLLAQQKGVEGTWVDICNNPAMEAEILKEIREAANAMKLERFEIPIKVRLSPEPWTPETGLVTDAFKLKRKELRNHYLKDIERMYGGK
UniProt P12814, whole entry, looked up: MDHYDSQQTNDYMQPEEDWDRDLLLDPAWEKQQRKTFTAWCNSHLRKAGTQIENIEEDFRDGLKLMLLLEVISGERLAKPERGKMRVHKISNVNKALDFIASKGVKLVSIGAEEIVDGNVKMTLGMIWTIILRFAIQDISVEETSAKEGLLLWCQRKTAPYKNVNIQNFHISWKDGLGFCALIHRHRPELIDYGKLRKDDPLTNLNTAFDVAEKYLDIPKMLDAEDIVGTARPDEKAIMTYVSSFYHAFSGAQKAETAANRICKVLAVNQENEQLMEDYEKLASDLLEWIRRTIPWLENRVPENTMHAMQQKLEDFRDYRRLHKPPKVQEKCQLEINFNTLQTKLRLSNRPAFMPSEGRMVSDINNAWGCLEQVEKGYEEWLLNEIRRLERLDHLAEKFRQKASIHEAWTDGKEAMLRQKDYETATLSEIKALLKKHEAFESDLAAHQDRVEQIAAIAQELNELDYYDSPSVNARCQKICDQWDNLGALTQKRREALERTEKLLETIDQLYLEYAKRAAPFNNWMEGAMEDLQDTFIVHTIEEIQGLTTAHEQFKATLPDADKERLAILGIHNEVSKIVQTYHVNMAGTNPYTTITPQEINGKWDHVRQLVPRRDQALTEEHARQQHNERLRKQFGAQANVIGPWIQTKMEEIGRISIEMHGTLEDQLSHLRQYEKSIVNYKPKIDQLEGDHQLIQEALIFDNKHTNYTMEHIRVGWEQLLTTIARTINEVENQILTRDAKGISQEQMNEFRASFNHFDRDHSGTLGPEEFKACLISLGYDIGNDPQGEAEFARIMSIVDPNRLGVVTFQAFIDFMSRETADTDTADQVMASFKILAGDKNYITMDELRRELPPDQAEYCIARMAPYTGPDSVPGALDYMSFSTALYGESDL
UniProt Q4G176: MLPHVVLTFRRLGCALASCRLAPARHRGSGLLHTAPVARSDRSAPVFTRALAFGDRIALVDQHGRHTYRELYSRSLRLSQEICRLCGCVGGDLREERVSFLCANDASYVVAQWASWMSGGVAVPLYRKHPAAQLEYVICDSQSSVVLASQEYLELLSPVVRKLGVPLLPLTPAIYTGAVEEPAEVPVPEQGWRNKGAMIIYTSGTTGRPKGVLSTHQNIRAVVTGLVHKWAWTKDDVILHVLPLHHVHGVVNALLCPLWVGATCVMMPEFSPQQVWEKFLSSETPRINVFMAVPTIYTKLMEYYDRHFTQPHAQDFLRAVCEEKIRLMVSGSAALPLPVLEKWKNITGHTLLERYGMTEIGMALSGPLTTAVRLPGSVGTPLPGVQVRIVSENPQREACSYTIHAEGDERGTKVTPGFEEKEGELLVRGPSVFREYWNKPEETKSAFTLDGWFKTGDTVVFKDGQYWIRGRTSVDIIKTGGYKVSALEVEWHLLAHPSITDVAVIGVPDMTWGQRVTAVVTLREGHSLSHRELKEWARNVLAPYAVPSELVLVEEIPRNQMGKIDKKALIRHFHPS
UniProt P24666: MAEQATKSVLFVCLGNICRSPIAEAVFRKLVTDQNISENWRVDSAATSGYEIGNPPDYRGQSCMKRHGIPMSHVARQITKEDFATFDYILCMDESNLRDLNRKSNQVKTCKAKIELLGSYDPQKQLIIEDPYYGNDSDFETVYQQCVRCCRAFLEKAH
UniProt O95573: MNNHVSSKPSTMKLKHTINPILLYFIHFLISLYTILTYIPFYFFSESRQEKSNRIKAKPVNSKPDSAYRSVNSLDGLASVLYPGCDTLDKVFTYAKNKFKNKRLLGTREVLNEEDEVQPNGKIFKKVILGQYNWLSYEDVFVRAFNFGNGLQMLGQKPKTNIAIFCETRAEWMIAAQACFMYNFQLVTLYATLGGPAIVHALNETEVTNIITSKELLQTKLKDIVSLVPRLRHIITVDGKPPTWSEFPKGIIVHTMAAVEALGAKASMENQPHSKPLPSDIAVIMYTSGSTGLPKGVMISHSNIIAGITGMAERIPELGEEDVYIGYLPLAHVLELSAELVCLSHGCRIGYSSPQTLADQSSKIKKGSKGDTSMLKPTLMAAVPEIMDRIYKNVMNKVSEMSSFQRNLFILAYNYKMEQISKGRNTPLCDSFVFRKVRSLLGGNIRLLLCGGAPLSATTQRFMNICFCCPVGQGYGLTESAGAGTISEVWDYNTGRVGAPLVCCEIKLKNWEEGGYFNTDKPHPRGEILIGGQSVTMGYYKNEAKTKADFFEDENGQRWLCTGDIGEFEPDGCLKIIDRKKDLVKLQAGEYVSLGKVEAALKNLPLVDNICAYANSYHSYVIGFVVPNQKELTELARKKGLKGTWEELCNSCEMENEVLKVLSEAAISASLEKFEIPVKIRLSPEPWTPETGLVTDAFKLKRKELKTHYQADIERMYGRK

How the values were obtained:
Experiment in all cases: log2 fold change, soluble protein after heating vs DMSO (PISA); higher = thermal stabilisation; K562 cells, 10 uM, 30 min; active = over 0.2 and 3.5 SD of the protein, either way, in both replicates (recomputed)
[1] = compound: CS(=O)(=O)c1ccc(-c2cnc(N)c(C(=O)Nc3ccccc3)n2)cc1
Summary of the method: (§1)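 Soluble protein was quantified by TMTpro 16plex LC-MS/MS after channel sums were equalised. It was obtained as the supernatant after 21,000xg for 90 min from pooled aliquots of K562 cells (2×10^6 cells/mL, 10 μM compound, 30 min) heated for 3 min across 48°C-58°C and extracted in PBS with 0.5% NP-40 at 4°C. Thermal stability values are relative to control samples and come from duplicates. They are given as log2 fold changes.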

crizotinib = compound: C[C@@H](Oc1cc(-c2cnn(C3CCNCC3)c2)cnc1N)c1c(Cl)ccc(F)c1Cl [crizotinib]
Summary of the method: as §1

[2] = compound: C[C@@H]1COCCN1C2=NC(=NC(=C2)C3(CC3)S(=O)(=O)C)C4=C5C=CNC5=CC=C4
Summary of the method: as §1

[3] = compound: C[C@H](C1=CC=C(C=C1)C(=O)NC2=C3C=CNC3=NC=C2)N
Summary of the method: as §1

duvelisib = compound: C[C@H](Nc1ncnc2nc[nH]c12)c1cc2cccc(Cl)c2c(=O)n1-c1ccccc1 [duvelisib]
Summary of the method: as §1

gandotinib = compound: Cc1cc(Nc2cc(CN3CCOCC3)c3nc(C)c(Cc4ccc(Cl)cc4F)n3n2)n[nH]1 [gandotinib]
Summary of the method: as §1

tozasertib = compound: Cc1cc(Nc2cc(N3CCN(C)CC3)nc(Sc3ccc(NC(=O)C4CC4)cc3)n2)n[nH]1 [tozasertib]
Summary of the method: as §1

[4] = compound: Cc1cc(SCc2sc(-c3ccc(C(F)(F)F)cc3)nc2C)ccc1OCC(=O)O
Summary of the method: as §1

doramapimod = compound: Cc1ccc(-n2nc(C(C)(C)C)cc2NC(=O)Nc2ccc(OCCN3CCOCC3)c3ccccc23)cc1 [doramapimod]
Summary of the method: as §1

ispinesib = compound: Cc1ccc(C(=O)N(CCCN)[C@@H](c2nc3cc(Cl)ccc3c(=O)n2Cc2ccccc2)C(C)C)cc1 [ispinesib]
Summary of the method: as §1

bafetinib = compound: Cc1ccc(NC(=O)c2ccc(CN3CC[C@H](N(C)C)C3)c(C(F)(F)F)c2)cc1Nc1nccc(-c2cncnc2)n1 [bafetinib]
Summary of the method: as §1

[5] = compound: Cc1cccc(CC(=O)N2CCc3c2ccc(-c2cn(C)c4ncnc(N)c24)c3F)n1
Summary of the method: as §1

dasatinib = compound: Cc1nc(Nc2ncc(C(=O)Nc3c(C)cccc3Cl)s2)cc(N2CCN(CCO)CC2)n1 [dasatinib]
Summary of the method: as §1

[6] = compound: Cn1cc(-c2ccc3c(c2)CCN3C(=O)Cc2cccc(C(F)(F)F)c2)c2c(N)ncnc21
Summary of the method: as §1

[7] = compound: Cn1cc(-c2ccc3nnc(C(F)(F)c4ccc5ncccc5c4)n3n2)cn1
Summary of the method: as §1

tipifarnib = compound: Cn1cncc1[C@@](N)(c1ccc(Cl)cc1)c1ccc2c(c1)c(-c1cccc(Cl)c1)cc(=O)n2C [tipifarnib]
Summary of the method: as §1

mubritinib = compound: FC(F)(F)c1ccc(/C=C/c2nc(COc3ccc(CCCCn4ccnn4)cc3)co2)cc1 [mubritinib]
Summary of the method: as §1

nilotinib = compound: Cc1cn(-c2cc(NC(=O)c3ccc(C)c(Nc4nccc(-c5cccnc5)n4)c3)cc(C(F)(F)F)c2)cn1 [nilotinib]
Summary of the method: as §1

[8] = compound: Cc1nc(Nc2n[nH]c3c2CN(C(=O)N[C@H](CN(C)C)c2ccccc2)C3(C)C)c2sccc2n1
Summary of the method: as §1

[9] = compound: Cc1ncc(-c2ccnc(Nc3ccc(S(C)(=O)=O)cc3)n2)n1C(C)C
Summary of the method: as §1

Measured: log2 fold change

ABRAXAS1 (UniProt Q6UWZ7)
inactive: [1] 0 | crizotinib 0.054 | [2] -0.011 | [3] 0.216 | duvelisib -0.053 | gandotinib 0.222 | tozasertib -0.04 | [4] -0.058 | doramapimod 0.066 | ispinesib 0.013 | bafetinib -0.2 | [5] -0.075 | dasatinib 0.149 | [6] -0.044 | [7] -0.116 | tipifarnib 0.059 | mubritinib -0.085

AASDH (UniProt Q4L235)
inactive: [1] -0.04 | crizotinib 0.07 | [2] 0.142 | [3] -0.058 | gandotinib -0.066 | [4] -0.034 | doramapimod -0.161 | ispinesib -0.236 | bafetinib -0.065 | [5] -0.008 | nilotinib -0.079 | [8] -0.149 | dasatinib 0.063 | [9] 0.173 | [6] 0.045 | [7] 0.024 | tipifarnib 0.058 | mubritinib 0.144

ABI2 (UniProt Q9NYB9)
inactive: [1] 0.029 | crizotinib -0.055 | [2] 0.002 | [3] -0.081 | duvelisib 0.029 | gandotinib -0.094 | tozasertib -0.052 | [4] 0.037 | doramapimod -0.045 | ispinesib -0.017 | bafetinib -0.067 | [5] -0.022 | nilotinib 0.059 | [8] -0.059 | dasatinib -0.103 | [9] -0.023 | [6] 0.042 | [7] -0.013 | tipifarnib 0.025 | mubritinib 0.07

ACSL4 (UniProt O60488)
inactive: [1] 0.02 | [2] 0.07 | [3] 0.099 | gandotinib -0.089 | [4] 0.151 | doramapimod 0.01 | bafetinib -0.021 | [5] -0.014 | nilotinib -0.027 | [8] -0.063 | dasatinib -0.222 | [9] 0.087 | [6] 0.05 | [7] 0.115 | tipifarnib -0.134 | mubritinib -0.078
active: crizotinib -0.338 | ispinesib -0.311

ACTN1 (UniProt P12814)
inactive: [1] -0.014 | crizotinib 0.031 | [2] 0.011 | [3] -0.049 | duvelisib 0.05 | gandotinib -0.012 | tozasertib -0.028 | [4] 0.004 | doramapimod 0.007 | ispinesib 0.056 | bafetinib -0.017 | [5] -0.016 | nilotinib 0.021 | [8] 0.008 | dasatinib -0.004 | [9] 0.002 | [6] 0.027 | [7] -0.009 | tipifarnib 0.006 | mubritinib 0.022

ACSF3 (UniProt Q4G176)
inactive: [1] 0.018 | crizotinib 0.063 | [2] -0.002 | [3] 0.026 | gandotinib 0.09 | [4] 0.022 | doramapimod -0.027 | ispinesib 0.174 | bafetinib -0.13 | [5] -0.105 | nilotinib 0.084 | [8] 0.135 | dasatinib -0.073 | [9] 0.022 | [6] -0.278 | [7] -0.02 | tipifarnib 0.062
active: mubritinib -0.433

ACP1 (UniProt P24666)
inactive: [1] 0.077 | crizotinib -0.063 | [2] -0.033 | [3] 0.165 | gandotinib -0.083 | [4] 0.324 | doramapimod 0.141 | bafetinib 0.041 | [5] 0.013 | nilotinib 0.078 | [8] -0.071 | dasatinib -0.129 | [9] -0.01 | [6] 0.037 | tipifarnib 0.037 | mubritinib 0.035

ACSL3 (UniProt O95573)
inactive: [1] 0.009 | crizotinib -0.013 | [2] 0.011 | [3] -0.024 | gandotinib -0.046 | [4] 0.097 | doramapimod -0.033 | ispinesib -0.024 | bafetinib -0.066 | [5] 0.042 | nilotinib -0.086 | [8] -0.048 | dasatinib -0.06 | [9] 0.011 | [6] 0.029 | [7] 0.075 | tipifarnib -0.042 | mubritinib 0
